Data as given in PubChem BioAssay AID1259254 (NCATS, 2017)
Aim: 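Genome-wide screen for genes that prevent DNA re-replication in cancer cells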 (primary screen). Cell system: human HCT116 colorectal cancer cells. Reagent: single siRNA against human genes. Timing: 3 days. Measured: 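Nuclei stained with Hoechst and imaged; cell-cycle phase assigned by DNA content; G2 share scaled per plate, non-targeting siRNA 0%, GMNN siRNA 100%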. Direction: G2 robust z-score: higher = more G2 cells, more excess DNA replication. Rule for the call: 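An siRNA counts as active if its G2 robust z-score lies at least 5 MADs above the screen median; here such calls match roughly 38% of GMNN control or more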.
This is an unselected part of about 59,000 reagents. Over the whole deposit, about 1,550 (2.6%) are marked active. 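G2 share is only a proxy for re-replication; each gene was hit by three separate siRNAs, and active genes were retested.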 Reagents against one gene are numbered here. Not all columns of the deposit are shown. The record does not give: the amount of reagent.

G2 robust z-score, by target and reagent
PRNT (prion locus lncRNA, testis expressed): #1 0.253 inactive; #2 3.8 inactive; #3 0.859 inactive
SUSD5 (sushi domain containing 5): #1 3.68 inactive; #2 0.653 inactive; #3 -0.383 inactive
CABP1 (calcium binding protein 1): #1 0.236 inactive; #2 -0.163 inactive; #3 -0.808 inactive
MFSD12 (major facilitator superfamily domain containing 12): #1 0.29 inactive; #2 3.8 inactive; #3 1.92 inactive
F2RL1 (F2R like trypsin receptor 1): #1 8.83 active; #2 -1.07 inactive; #3 -0.932 inactive
ASB12 (ankyrin repeat and SOCS box containing 12): #1 0.7 inactive; #2 -0.983 inactive; #3 -0.796 inactive
MDP1 (magnesium dependent phosphatase 1): #1 1.96 inactive; #2 -0.678 inactive; #3 3.16 inactive
SLC27A4: #1 -0.39 inactive; #2 0.143 inactive; #3 -0.43 inactive
RABL2B (RAB, member of RAS oncogene family like 2B): #1 -0.858 inactive; #2 -0.249 inactive; #3 -0.408 inactive
SLC28A3: #1 1.04 inactive; #2 1.15 inactive; #3 -0.32 inactive
MB (myoglobin): #1 -1.21 inactive; #2 -0.393 inactive; #3 -0.0807 inactive
PDZD4 (PDZ domain containing 4): #1 -0.211 inactive; #2 -0.556 inactive; #3 -0.68 inactive
COMTD1 (catechol-O-methyltransferase domain containing 1): #1 0.704 inactive; #2 -0.702 inactive; #3 -1.3 inactive
FZD4 (frizzled class receptor 4): #1 -1.78 inactive; #2 0.645 inactive; #3 0.969 inactive
DPH6 (diphthamine biosynthesis 6): #1 -0.943 inactive; #2 -0.465 inactive; #3 0.293 inactive
RNGTT (RNA guanylyltransferase and 5'-phosphatase): #1 -0.998 inactive; #2 0.61 inactive; #3 -0.778 inactive
TLCD4 (TLC domain containing 4): #1 2.72 inactive; #2 0.679 inactive; #3 -0.666 inactive
BNIPL (BCL2 interacting protein like): #1 -0.449 inactive; #2 -0.274 inactive; #3 -0.569 inactive
CLNK (cytokine dependent hematopoietic cell linker): #1 -0.345 inactive; #2 -0.251 inactive; #3 -0.265 inactive
CENPM (centromere protein M): #1 -0.42 inactive; #2 -0.252 inactive; #3 -1.35 inactive
ASPHD2 (aspartate beta-hydroxylase domain containing 2): #1 0.15 inactive; #2 -0.677 inactive; #3 -0.0232 inactive
IL1RAP (interleukin 1 receptor accessory protein): #1 0.0811 inactive; #2 -0.186 inactive; #3 0.763 inactive
CABYR (calcium binding tyrosine phosphorylation regulated): #1 1.31 inactive; #2 -0.64 inactive; #3 0.254 inactive

Part of the list above, set out differently:
| target | reagent no. | G2 robust z-score | activity call |
| --- | --- | --- | --- |
| FZD4 (frizzled class receptor 4) | 2 | 0.645 | inactive |
| FZD4 (frizzled class receptor 4) | 3 | 0.969 | inactive |
| DPH6 (diphthamine biosynthesis 6) | 1 | -0.943 | inactive |
| DPH6 (diphthamine biosynthesis 6) | 2 | -0.465 | inactive |
| DPH6 (diphthamine biosynthesis 6) | 3 | 0.293 | inactive |
